The results in this text go back to ChEMBL document CHEMBL1127965, “Synthesis of novel monocyclic squalestatin analogues as potential inhibitors of squalene synthase” (Bioorg Med Chem Lett, 1994).

As a reminder, the IC50 is the concentration needed to halve the response being measured. Low values mean higher potency, high ones lower potency.

This experiment has as its target T1, Squalene synthase (Rattus norvegicus, UniProt Q02769).
T1 sequence (Q02769 whole entry): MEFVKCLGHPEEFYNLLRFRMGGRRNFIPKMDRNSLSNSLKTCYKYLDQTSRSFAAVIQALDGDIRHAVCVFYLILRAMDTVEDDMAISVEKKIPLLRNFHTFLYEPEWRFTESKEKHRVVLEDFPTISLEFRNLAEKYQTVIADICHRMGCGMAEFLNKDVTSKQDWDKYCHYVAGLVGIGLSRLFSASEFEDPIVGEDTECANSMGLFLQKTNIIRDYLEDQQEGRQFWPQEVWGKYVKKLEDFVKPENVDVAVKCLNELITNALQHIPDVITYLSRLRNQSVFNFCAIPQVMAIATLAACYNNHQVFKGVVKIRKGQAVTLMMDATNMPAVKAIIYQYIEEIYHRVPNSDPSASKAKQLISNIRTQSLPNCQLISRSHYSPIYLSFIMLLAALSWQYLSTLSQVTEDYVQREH
Put plainly: In vitro inhibitory activity against rat liver squalene synthase.

As to `C=C(CCC12OC(C(=O)O)C(O)(C(=O)O)C(C(=O)O)(O1)[C@H](O)[C@H]2O)[C@@H](OC(C)=O)[C@H](C)Cc1ccccc1` (stereo partly specified), the IC50 was determined as 6 nM.
